{"sequences": {"note": "The chains behind the UniProt entries cited, without tags or fusion partners.", "UniProt P15927": "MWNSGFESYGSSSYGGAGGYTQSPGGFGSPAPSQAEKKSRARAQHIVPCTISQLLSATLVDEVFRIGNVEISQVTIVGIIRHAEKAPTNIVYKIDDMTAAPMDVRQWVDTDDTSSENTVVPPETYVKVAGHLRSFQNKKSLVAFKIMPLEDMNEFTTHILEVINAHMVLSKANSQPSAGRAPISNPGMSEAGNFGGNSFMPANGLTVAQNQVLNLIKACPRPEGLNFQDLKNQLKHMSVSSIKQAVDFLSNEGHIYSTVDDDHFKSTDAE", "UniProt P12004": "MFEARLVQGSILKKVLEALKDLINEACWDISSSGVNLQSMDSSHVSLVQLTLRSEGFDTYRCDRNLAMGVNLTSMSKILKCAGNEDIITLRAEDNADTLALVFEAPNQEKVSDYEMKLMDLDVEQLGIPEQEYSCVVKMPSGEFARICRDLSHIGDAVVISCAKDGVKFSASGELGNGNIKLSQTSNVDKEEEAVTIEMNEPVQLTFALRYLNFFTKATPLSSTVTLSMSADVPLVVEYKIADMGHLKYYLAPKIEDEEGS"}, "source": "paper doi:10.1101/2023.03.09.531843", "key": {"[1]": {"target": "RPA32 phosphorylated at S33 (RPA32-pS33) (human (endogenous in U2OS)) (UniProt P15927)", "assay": "proximity ligation"}, "[2]": {"target": "PCNA (human (endogenous in U2OS)) (UniProt P12004)", "assay": "proximity ligation"}}, "note": "These are yes or no findings as the source states them, for the method shown. Binding seen in cells or lysates may run through a third protein. Some binding calls cover weakened binding; strength is not graded here.", "data": [{"binder": "CGG binding protein 1 (CGGBP1) (protein, UniProt Q9UFW8 1-167) MERFVVTAPPARNRSKTALYVTPLDRVTEFGGELHEDGGKLFCTSCNVVLNHVRKSAISDHLKSKTHTKRKAEFEEQNVRKKQRPLTASLQCNSTAQTEKVSVIQDFVKMCLEANIPLEKADHPAVRAFLSRHVKNGGSIPKSDQLRRAYLPDGYENENQLLNSQDC", "values": [{"measurement": "binding", "setting": "[1]", "value": "binds"}, {"measurement": "binding", "setting": "[2]", "value": "binds"}]}]}
